# Assay results published in US20020160473A1.
# These are yes or no findings as the source states them, for the method shown. Some results given as binding are weak or reduced against the parent protein; the word gives no strength.
# B1: FP10-cr1 (hcFRFP-2) (HcRed-2A) (protein)
# chain: MSGLLKESMRIKMYMEGTVNGHYFKCEGEGDGNPFAGTQSMRIHVTEGAPLPFAFDILAPCCEYGSRTFVHHTAEIPDFFKQSFPEGFTWERTTTYEDGGILTAHQDTSLEGNCLIYKVKVHGTNFPADGPVMKNKSGGWEPSTEVVYPENGVLCGRNVMALKVGDRHLICHHYTSYRSKKAVRALTMPGFHFTDIRLQMLRKTKDEYFELYEASVARYSDLPEKAN
# Assays:
# [1] = target: FP10-cr1 (hcFRFP-2) (HcRed-2A) (Heteractis crispa) (UniProt Q95W85); assay: self-association (homodimer); described in paragraph 181 (gel filtration)
# [2] = target: FP10-cr1 (hcFRFP-2) (HcRed-2A) (Heteractis crispa) (UniProt Q95W85); assay: self-association (homodimer); oligomerization study by gel filtration
binder,measurement,setting,value
B1,binding,[1],binds
same,binding,[2],binds
